Reference: article doi:10.1101/2020.03.29.015024
Where two headings read alike, the source gives them in different places. Results are given in words; binding and its absence hold for the method and conditions named. In cells and extracts the contact can be indirect. Some binding calls cover weakened binding; strength is not graded here. Tags and fused reporters may be left off the sequences shown.

Protein sequences, listed by entry. Tags and fused reporters are not part of them.
UniProt Q9Z2C8: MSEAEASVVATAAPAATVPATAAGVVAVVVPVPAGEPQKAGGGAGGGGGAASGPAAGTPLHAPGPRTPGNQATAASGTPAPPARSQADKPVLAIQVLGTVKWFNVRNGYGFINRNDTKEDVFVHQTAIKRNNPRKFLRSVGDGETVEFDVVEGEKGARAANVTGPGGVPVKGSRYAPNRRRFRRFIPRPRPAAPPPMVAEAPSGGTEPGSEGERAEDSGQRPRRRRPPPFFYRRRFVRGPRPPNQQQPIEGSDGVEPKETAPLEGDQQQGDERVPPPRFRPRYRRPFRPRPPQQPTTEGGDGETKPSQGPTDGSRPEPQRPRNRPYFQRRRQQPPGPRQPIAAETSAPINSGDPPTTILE
UniProt Q9JMB7: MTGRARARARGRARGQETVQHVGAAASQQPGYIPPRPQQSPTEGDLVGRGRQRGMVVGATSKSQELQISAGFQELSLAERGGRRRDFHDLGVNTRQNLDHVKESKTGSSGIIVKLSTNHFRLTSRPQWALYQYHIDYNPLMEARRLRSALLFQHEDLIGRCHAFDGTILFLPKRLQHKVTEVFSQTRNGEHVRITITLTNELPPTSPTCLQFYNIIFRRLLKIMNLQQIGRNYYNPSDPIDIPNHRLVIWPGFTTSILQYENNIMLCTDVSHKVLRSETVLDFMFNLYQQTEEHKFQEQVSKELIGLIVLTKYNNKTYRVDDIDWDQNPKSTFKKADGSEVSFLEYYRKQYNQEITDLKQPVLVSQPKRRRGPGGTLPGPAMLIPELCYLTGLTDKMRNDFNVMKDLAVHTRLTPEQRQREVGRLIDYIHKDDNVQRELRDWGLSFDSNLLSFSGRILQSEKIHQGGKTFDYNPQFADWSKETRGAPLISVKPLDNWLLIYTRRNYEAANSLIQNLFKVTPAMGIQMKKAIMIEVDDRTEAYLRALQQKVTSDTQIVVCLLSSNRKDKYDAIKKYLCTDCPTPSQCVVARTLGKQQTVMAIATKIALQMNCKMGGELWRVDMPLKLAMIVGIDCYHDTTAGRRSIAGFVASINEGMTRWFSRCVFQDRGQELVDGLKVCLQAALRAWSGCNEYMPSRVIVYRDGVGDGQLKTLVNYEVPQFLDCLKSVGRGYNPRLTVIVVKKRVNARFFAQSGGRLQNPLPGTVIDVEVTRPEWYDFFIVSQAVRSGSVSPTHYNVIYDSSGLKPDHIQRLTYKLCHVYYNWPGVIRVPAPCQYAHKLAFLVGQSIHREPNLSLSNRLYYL
UniProt P62631: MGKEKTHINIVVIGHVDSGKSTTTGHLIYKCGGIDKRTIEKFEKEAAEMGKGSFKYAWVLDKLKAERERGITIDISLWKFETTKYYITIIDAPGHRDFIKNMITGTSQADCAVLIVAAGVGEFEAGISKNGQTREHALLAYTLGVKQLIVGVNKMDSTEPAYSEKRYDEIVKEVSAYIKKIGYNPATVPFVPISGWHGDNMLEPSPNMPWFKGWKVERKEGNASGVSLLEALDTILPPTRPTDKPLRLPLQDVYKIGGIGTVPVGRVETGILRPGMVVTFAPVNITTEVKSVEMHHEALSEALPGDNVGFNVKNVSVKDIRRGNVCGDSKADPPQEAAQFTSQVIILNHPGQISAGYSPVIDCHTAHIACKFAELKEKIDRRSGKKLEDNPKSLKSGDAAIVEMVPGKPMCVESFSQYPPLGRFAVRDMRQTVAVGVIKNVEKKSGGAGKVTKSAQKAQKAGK

Assays:
[1] = molecular target: T1, Mitofusin 2 (MFN2) (mouse (endogenous in testis)) (UniProt Q80U63); test: co-IP
T1 sequence: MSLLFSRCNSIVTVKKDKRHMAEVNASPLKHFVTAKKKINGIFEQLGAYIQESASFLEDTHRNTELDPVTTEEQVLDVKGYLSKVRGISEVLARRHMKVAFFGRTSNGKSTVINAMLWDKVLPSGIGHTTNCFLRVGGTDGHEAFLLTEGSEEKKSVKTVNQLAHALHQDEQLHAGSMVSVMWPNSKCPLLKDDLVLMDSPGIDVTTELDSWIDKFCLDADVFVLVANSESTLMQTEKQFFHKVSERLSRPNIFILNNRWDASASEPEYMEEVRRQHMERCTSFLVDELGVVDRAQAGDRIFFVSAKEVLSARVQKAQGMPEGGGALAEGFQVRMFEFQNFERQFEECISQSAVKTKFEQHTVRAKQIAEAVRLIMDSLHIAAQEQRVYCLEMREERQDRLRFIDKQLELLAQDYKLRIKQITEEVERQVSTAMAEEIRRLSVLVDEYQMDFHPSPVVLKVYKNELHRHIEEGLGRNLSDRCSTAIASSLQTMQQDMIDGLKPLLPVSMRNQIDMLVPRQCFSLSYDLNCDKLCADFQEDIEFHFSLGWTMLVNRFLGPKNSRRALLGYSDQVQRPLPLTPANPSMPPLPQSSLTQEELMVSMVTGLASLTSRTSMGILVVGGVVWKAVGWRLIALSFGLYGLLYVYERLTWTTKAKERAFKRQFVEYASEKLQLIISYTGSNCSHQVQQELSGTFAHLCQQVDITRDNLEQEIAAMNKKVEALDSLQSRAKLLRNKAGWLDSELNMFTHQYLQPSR

[2] = molecular target: T1, Mitofusin 2 (MFN2) (mouse (endogenous in testis)); test: co-IP; remark: listed apart in the source

MSY2 (from UniProt Q9Z2C8 1-360)
binding [1]: binds

MIWI (from UniProt Q9JMB7 1-862)
binding [1]: binds

eukaryotic elongation factor 1 alpha 2 (eEF1A2) (from UniProt P62631 1-463)
binding [1]: binds

B1: Mitofusin 1 (MFN1) (protein, UniProt Q811U4 1-741)
chain: MAETVSPLKHFVLAKKAITAIFGQLLEFVTEGSHFVEATYRNPELDRIASEDDLVEIQGYRNKLAVIGEVLSRRHMKVAFFGRTSSGKSSVINAMLWDKVLPSGIGHTTNCFLSVEGTDGDKAYLMTEGSDEKKSVKTVNQLAHALHMDKDLKAGCLVHVFWPKAKCALLRDDLVLVDSPGTDVTTELDIWIDKFCLDADVFVLVANSESTLMNTEKHFFHKVNERLSKPNIFILNNRWDASASEPEYMEDVRRQHMERCLHFLVEELKVVSPSEARNRIFFVSAKEVLNSRKHKAQGMPEGGGALAEGFQARLQEFQNFEQTFEECISQSAVKTKFEQHTIRAKQILDTVKNILDSVNVAAAEKRVYSMEEREDQIDRLDFIRNQMNLLTLDVKKKIKEVTEEVANKVSCAMTDEICRLSVLVDEFCSEFHPTPSVLKVYKSELNKHIEDGMGRNLADRCTNEVNASILQSQQEIIENLKPLLPAGIQNKLHTLIPCKKFDLSYDLNCHKLCSDFQEDIVFRFSLGWSSLVHRFLGSTNAQRVLLGLSEPIFQVPRSLASTPTAPSNPAAPDNAAQEELMITLITGLASLTSRTSMGIIVVGGVIWKTVGWKLISVTLSMYGALYLYERLTWTTRAKERAFKQQFVNYATEKLQMIVSFTSANCSHQVQQEMATTFARLCQQVDVTQKHLEEEIARLSKEIDQLEKIQNNSKLLRNKAVQLESELENFSKQFLHPSSGES
binding [2]: binds

B2: DDX4 (protein, UniProt Q61496 1-702)
chain: MGDEDWEAEILKPHVSSYVPVFEKDKYSSGANGDTFNRTSASSDIGESSKKENTSTTGGFGRGKGFGNRGFLNNKFEEGDSSGFWKESNNDCEDNQTRSRGFSKRGGCQDGNDSEASGPFRRGGRGSFRGCRGGFGLGRPNSESDQDQGTQRGGGLFGSRKPAASDSGNGDTYQSRSGSGRGGYKGLNEEVVTGSGKNSWKSETEGGESSDSQGPKVTYIPPPPPEDEDSIFAHYQTGINFDKYDTILVEVSGHDAPPAILTFEEANLCQTLNNNIAKAGYTKLTPVQKYSIPIVLAGRDLMACAQTGSGKTAAFLLPILAHMMRDGITASRFKELQEPECIIVAPTRELINQIYLEARKFSFGTCVRAVVIYGGTQFGHSVRQIVQGCNILCATPGRLMDIIGKEKIGLKQVKYLVLDEADRMLDMGFGPEMKKLISCPGMPSKEQRQTLLFSATFPEEIQRLAGDFLKSSYLFVAVGQVGGACRDVQQTILQVGQYSKREKLVEILRNIGDERTMVFVETKKKADFIATFLCQEKISTTSIHGDREQREREQALGDFRCGKCPVLVATSVAARGLDIENVQHVINFDLPSTIDEYVHRIGRTGRCGNTGRAISFFDTDSDNHLAQPLVKVLSDAQQDVPAWLEEIAFSTYVPPSFSSSTRGGAVFASVDTRKNYQGKHTLNTAGISSSQAPNPVDDESWD
binding [2]: binds

B3: GASZ (protein, UniProt Q8VD46 1-475)
chain: MAAGTLRGLAVAGGGESSDSEDDGWDIGYLDRSSQKLKRSLPVEEKNETFKKALTTGDISLVKELLDSGINVDSSFRYGWTPLMYAASVANAELVRFLLDRGANASFDKDKLTILISACSARGSEEQVLKCVELLLSRNADPNTACRRLMTPIMYAARDGHTQVVALLVAHGAEVNAQDENGYTALTWAARQGHKNVILKLLELGANKMLQTKDGRTPSEIAKRNKHLEIFNFLSLTLNPLEGKLQQLTKEETICKLLATDSDKEKDHIFSPYTAFGDLEIFLHGLGLEHMTDSLKEKDITLRHLLTMKKDELTKNGIASKDQQKILAALKELEVEEINFGKLPEVTKLEISGDEFLNFLLKLNKQCGHLITAVQNIITELPVNSHKIVLEWASPRNFTSVCEELVSNVEDLNEEVCRLKELIQKMQNERENDPTHIPLVEEVSTWKTRILKRSAVTVCGFGLLLFIGKLTLQRK
binding [2]: binds

B4: TDRKH (protein, UniProt Q80VL1 1-560)
chain: MSTERTSWTNLSTIQKIALGLGIPASATVAYILYRRYRESREERLTFVGEDDIEIEMRVPQEAVKLIIGRQGANIKQLRKQTGARIDVDTEDVGDERVLLISGFPVQVCKAKAAIHQILTENTPVFEQLSVPQRSVGRIIGRGGETIRSICKASGAKITCDKESEGTLLLSRLIKISGTQKEVAAAKHLILEKVSEDEELRKRIAHSAETRVPRKQPISVRREEVTEPGGAGEAALWKNTNSSMGPATPLEVPLRKGGGDMVVVGPKEGSWEKPNDDSFQNSGAQSSPETSMFEIPSPDFSFHADEYLEVYVSASEHPNHFWIQIIGSRSLQLDKLVSEMTQHYENSLPEDLTVHVGDIVAAPLSTNGSWYRARVLGTLENGNLDLYFVDFGDNGDCALKDLRALRSDFLSLPFQAIECSLARIAPTGEEWEEEALDEFDRLTHCADWKPLVAKISSYVQTGISTWPKIYLYDTSDEKKLDIGLELVRKGYAVELPEDMEENRTVPNMLKDMATETDDSLASILTETKKSPEEMPHTLSCLSLSEAASMSGDDNLEDDLF
binding [2]: binds

B5: MAEL (protein, UniProt Q8BVN9 1-434)
chain: MPNRRASRNAYYFFVQEKIPELRRRGLPVARVADAIPYCSADWALLREDEKEKYSEMAREWRAAQGKDSGPSEKQKLVSTPLRRPGMLVPKPSISPPDMSNLSIKSDQALLGGIFYFLNIFSHGELPPHCEQRFLPCEIGCVKYSLQEGIMADFHSFIHPGEIPRGFRFHCQAASDSSHKIPISNFEFGHDQATVLQNLYKFIHPNPGNWPPIYCKSDDRARVNWCLKRMERASEIRQDLELLTVEDLVVGIYQQKFLKEPSKTWVRSLLDVAMWDYSSNTRCKWHEENDILFCALAVCKKIAYCISNSLATLFGIQLTGAHVPLQDYEASNSVTPKMVVLDAGRYQKLRVESPGFCHFNSYNQEQRSNTSTGYYPSGVKISGPHSSVRGRGITRLLESISNSSNNIHRFSSCETSLSPYTPQKDGYKPFSSFS
binding [2]: no binding
